The labels stand for the following.
B1: DFSK9-1 complete antibody (antibody, V domains shown)
VH: QVQLVQSGAEVKRPGASVKVSCKASGGTFTNNAISWVRQAPGQGLEWMGRIIPMFGMANYAQKLQGRGTMTTDPSTSTAYMELRSLRSDDTAVYYCAREGIPMIWGQGTTVTVSS
VL: DIQMTQSPSSLSASVGDRVTITCRASQSIDNRLTWYQQKPGKAPKLLIYDASSRQSGVPSRFSGSGSGTDFTLTISSLQPEDFATYYCQQPENDPTTFGQGTKVEIK
B2: DFSK9-12 complete antibody (antibody, V domains shown)
VH: QVQLVQSGAEVKKPGASVKVSCKASGYTVTSYGISWVRQAPGQGLEWMGWLSFYNGNTNYAQKLQGRGTMTTDPSTSTAYMELRSLRSDDTAVYYCARGYSLDVWGQGTTVTVSS
VL: DIQMTQSPSSLSASVGDRVTITCRASQSVRNWLDWYQQKPGKAPKLLIYGASTLESGVPSRFSGSGSGTDFTLTISSLQPEDFATYYCQQDNDIPLTFGQGTKVEIK
B3: DFSK9-13 complete antibody (antibody, V domains shown)
VH: B2 VH with T28S, V29L, L51V, N55Q, S101G, L102M, D103T
VL: B2 VL with S28D, R30D, N31S, D34T, T53N, E55A, N92S, D93K
B4: DFSK9-17 complete antibody (antibody, V domains shown)
VH: B2 VH with L51V, T58S
VL: DIQMTQSPSSLSASVGDRVTITCRASQNINNWLNWYQQKPGKAPKLLIYGASTRPTGVPSRFSGSGSGTDFTLTISSLQPEDFATYYCQQWDDTPNTFGQGTKVEIK

Chains of the proteins cited; added tags and fusions are not shown. Residues count along the entry.
UniProt Q8NBP7, residues 31-692: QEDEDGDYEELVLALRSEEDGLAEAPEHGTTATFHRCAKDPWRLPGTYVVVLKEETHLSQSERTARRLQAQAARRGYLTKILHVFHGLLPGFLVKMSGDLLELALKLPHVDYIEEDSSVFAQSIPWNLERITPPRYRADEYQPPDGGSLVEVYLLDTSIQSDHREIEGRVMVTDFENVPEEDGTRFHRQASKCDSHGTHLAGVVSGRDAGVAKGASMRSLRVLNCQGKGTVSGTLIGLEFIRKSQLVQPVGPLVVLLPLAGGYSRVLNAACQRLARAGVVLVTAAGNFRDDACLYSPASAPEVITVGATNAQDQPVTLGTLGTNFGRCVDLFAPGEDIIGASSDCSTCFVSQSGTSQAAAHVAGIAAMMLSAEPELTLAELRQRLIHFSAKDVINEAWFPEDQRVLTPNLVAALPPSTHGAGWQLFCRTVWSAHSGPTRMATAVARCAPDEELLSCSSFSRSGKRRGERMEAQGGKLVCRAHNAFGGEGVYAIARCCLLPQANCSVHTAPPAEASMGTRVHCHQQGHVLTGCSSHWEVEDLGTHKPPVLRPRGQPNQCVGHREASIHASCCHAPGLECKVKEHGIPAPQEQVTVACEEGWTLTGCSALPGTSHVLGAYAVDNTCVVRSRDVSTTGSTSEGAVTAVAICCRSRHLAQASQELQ

Positions count from the first letter of the chain named. Results are given in words; binding and its absence hold for the method and conditions named. Some entries that bind do so weakly or less than the wild type.

The first assay has as its target T1, PCSK9-His (UniProt Q8NBP7 31-692).
T1 construct: also called antigen PCSK9-His; Proprotein Convertase Subtilisin/Kexin Type 9; not shown: His tag
The experiment in a line: ELISA, PCSK9-His coated, complete antibody titrated, anti-human IgG-HRP. As for the experimental part: Coating PCSK9-His (300 ng/well/100 μl) by 0.01M PBS buffer at pH 7.2 overnight at 4° C., washing three times with PBST (1‰ Tween 20) of 300 μl/well, further adding PBST-4% milk, and blocking for one hour at 37° C.; adding complete antibodies DFSK9-1, DFSK9-12, DFSK9-13, DFSK9-14, DFSK9-15, DFSK9-16, DFSK9-17, DFSK9-18, DFSK9-19, DFSK9-20 and DFSK9-21 of different dilution degrees; the highest concentration of the 11 complete antibodies is 50 μg/ml, diluting at a five-time gradient, diluting for eight gradients for each complete antibody, and incubating for one hour at 37° C.; washing 5 times with PBST of 300 μl/well, further adding a goat-anti-human IgG-HRP secondary antibody diluted by PBST-4% milk at a ratio of 1:5000, and incubating for one hour at 37° C.; washing 5 times with PBST of 300 μl/well, developing by using a Tetramethylbenzidine (TMB) developing kit (100 μl/well), developing for 10 minutes at a room temperature, and terminating developing with 2M H₂SO₄ (50 μl/well); reading numbers by using a microplate reader at wavelengths of 450 nm and 630 nm; analyzing data and drawing pictures by using software GraphPad Prism 5Demo, and results are shown in FIG. 8 and table 2.
A general note: An ELISA detects its analyte on a solid surface through an enzyme-linked reagent.
On to B1, for which the binding entry is “binds”.

As to B2, the binding entry is “binds”.

On to B3, for which the binding result is given as “binds”.

As for B4, the binding result is reported as “binds”.

For a further assay, the target named is PCSK9 (UniProt Q8NBP7 31-692, limits assumed). The experiment in a line: SPR BIAcore X100, antibody captured by goat anti-human IgG on CM5, PCSK9 as analyte. A general note: SPR reads the build-up and loss of mass on a sensor chip optically.
For the molecule B1, the binding result is reported as “binds”.

Regarding B2, the binding entry was “binds”.

B3: the binding entry is “binds”.

B4: the binding result was “binds”.
